Source: PMC9911399, “Two distinct binding modes provide the RNA-binding protein RbFox with extraordinary sequence specificity”
Where a chain is given by its changes, count along the chain named. For part of these data: A weaker result is weaker than the reference pair of the same experiment. For part of these data: Where a protein sequence is shown, tags need not be part of it. For part of these data: The exact form of at least one protein or probe is not confirmed. For part of these data: At least one verdict rests on a figure or table, not on a statement of the authors. For part of these data: Whether high values mean tight binding is not given here for every scale.

Protein sequences, listed by entry. Tags and fused reporters are not part of them. Lines headed by an entry give the natural chain unless they say otherwise; changes in a name come on top.
UniProt Q9NWB1: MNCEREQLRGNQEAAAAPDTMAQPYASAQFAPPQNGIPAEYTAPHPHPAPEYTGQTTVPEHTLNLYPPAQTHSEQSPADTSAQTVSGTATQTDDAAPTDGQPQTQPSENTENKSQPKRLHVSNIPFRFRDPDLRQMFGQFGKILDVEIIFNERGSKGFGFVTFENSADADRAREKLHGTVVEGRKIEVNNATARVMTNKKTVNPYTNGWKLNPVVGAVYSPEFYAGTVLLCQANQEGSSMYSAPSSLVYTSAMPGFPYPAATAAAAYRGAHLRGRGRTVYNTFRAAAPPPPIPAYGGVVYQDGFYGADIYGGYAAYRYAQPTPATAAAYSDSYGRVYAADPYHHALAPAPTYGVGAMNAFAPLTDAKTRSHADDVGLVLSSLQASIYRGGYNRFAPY

Experiments:
[1] = biological target: T1, RBFOX1 RRM RbFoxmut (Fox-RRM*) R118D,E147R,N151S,E152T (Homo sapiens) (UniProt Q9NWB1); test: NMR; details: 10 mM sodium phosphate pH 6.0, 30 mM NaCl, 298 K; purified recombinant protein; residues 109-208; variant of UGCAUGU
T1 sequence (looked up): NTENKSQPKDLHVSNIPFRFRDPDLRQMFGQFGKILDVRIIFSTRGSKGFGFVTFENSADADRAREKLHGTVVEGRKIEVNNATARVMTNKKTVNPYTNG

[2] = biological target: T2, RbFox RRM (wt) (UniProt Q9NWB1); test: EMSA; details: binding barely detectable, estimated lower limit; EMSA: 10 mM Tris pH 7.5, 150 mM NaCl, 3.4 mM EDTA, 0.001% NP-40, 30 C, 10 min, 1 nM RNA, 8% native PAGE; recombinant protein; residues 109-208; label: 5' 32P (EMSA), unlabeled (NMR)
T2 sequence (looked up): T1 sequence (looked up) with D10R, R39E, S43N, T44E

[3] = biological target: T3, RbFoxmut (RRM with four substitutions) (UniProt Q9NWB1); test: NMR HSQC titration; details: slow exchange, affinity better than uM, NMR: 10 mM sodium phosphate pH 6.0, 30 mM NaCl, 298 K (RNA spectra), recombinant protein, protein details: His-tag (HisTrap)
T3 sequence: T1 sequence (looked up) with D10R, R39E, S43N, T44E

[4] = biological target: T4, RBFOX1 RRM (Homo sapiens) (UniProt Q9NWB1); test: SPR; details: purified recombinant protein; variant of UGCAUGU; cited from earlier work
T4 sequence (looked up, limits assumed): T1 sequence (looked up) with D10R, R39E, S43N, T44E

[5] = biological target: T2, RbFox RRM (wt); test: competition EMSA; details: 32P-labeled UGCAUGU displaced, EMSA: 10 mM Tris pH 7.5, 150 mM NaCl, 3.4 mM EDTA, 0.001% NP-40, 30 C, 10 min, 1 nM RNA, 8% native PAGE, recombinant protein, residues 109-208; for binding result: value only in Fig 1f
[6] = biological target: T2, RbFox RRM (wt); test: NMR HSQC titration; details: intermediate exchange, binds more weakly than RNA1; NMR: 10 mM sodium phosphate pH 6.0, 30 mM NaCl, 298 K (RNA spectra); recombinant protein; residues 109-208; label: unlabeled
[7] = biological target: T2, RbFox RRM (wt); test: NMR HSQC titration and solution structure; details: intermediate exchange, new structure, PDB id not in material; NMR: 10 mM sodium phosphate pH 6.0, 30 mM NaCl, 298 K (RNA spectra); recombinant protein; residues 109-208; label: unlabeled

| Sequence | binding signal (ln(KA relative to UGCAUGU)) [4] | also measured |
| --- | --- | --- |
| UGAAUGU | – | binding result [1]: binds; half-maximal binding [2]: > 17 µM; binding result ([3]; label: 5' 32P (EMSA), unlabeled (NMR)): binds |
| UGCUUGU | -4.26 | – |
| GGAAUGU | -4.08 | – |
| UGCCUGU | -3.79 | – |
| CGGUUGU | -5.77 | – |
| UGCAUGC | -0.273 | – |
| GGCAUGU | -1.81 | – |
| UGCAUGA | 0.687 | – |
| UGCAAGU | – | binding result ([5]; label: unlabeled competitor): binds more weakly |
| UGAAUCU | – | binding result [1]: binds; binding result ([3]; label: unlabeled): binds |
| UUCAUGU [RNA2 UUCAUGU] | – | binding result [6]: binds more weakly |
| UGCGUGU | – | binding result ([5]; label: unlabeled competitor): binds more weakly |
| GGCUUGU | -6.14 | – |
| CGCAUGU | -1.28 | – |
| UGCAUGG | 0.201 | – |
| UGCAUAU [RNA1 UGCAUAU] | – | binding signal (ln(KA,rel) vs UGCAUGU) ([5]; HiTS-Eq value -4.4678, label: …): -7.01; binding result [7]: binds more weakly |
| GGGUUGU | -5.91 | – |
| UACAUGU | – | binding result [5]: binds more weakly |
| AGCAUGU | -1.86 | – |
| UGCACGU | -2.42 | – |
